Test results published in PMC7137325.
These are yes or no findings as the source states them, for the method shown. In cells and extracts the contact can be indirect. Some binding calls cover weakened binding; strength is not graded here.

Key:
[1] = molecular target: T1, AGGF1 (human (endogenous in K562)) (UniProt Q8N302); assay: condition: only high-salt wash buffers present in eCLIP; co-IP; immunoprecipitation from UV crosslinked K562 cells in high-salt wash conditions with standard eCLIP wash buffers, beads and reagents; western probed for HNRNPL
T1 sequence: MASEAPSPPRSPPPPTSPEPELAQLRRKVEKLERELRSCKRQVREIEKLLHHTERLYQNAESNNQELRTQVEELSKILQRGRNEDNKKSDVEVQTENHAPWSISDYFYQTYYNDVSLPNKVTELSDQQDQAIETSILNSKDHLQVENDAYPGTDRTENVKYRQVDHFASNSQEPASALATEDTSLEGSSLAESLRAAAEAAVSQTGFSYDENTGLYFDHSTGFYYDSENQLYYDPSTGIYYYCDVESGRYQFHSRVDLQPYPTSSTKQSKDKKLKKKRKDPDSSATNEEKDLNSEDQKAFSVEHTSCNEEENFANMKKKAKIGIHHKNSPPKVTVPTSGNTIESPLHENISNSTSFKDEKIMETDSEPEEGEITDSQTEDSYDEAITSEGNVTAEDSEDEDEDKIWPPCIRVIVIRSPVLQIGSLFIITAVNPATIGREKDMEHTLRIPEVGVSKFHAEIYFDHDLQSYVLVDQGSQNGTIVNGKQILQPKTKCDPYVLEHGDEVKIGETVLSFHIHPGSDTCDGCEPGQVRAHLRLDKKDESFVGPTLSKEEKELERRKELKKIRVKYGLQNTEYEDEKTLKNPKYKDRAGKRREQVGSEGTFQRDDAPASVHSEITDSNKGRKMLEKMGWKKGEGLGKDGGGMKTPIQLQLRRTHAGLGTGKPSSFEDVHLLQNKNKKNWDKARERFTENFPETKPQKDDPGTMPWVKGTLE

[2] = molecular target: T2, RBFOX2 (human (endogenous in K562)) (UniProt O43251); assay: co-IP; low-salt co-immunoprecipitation from UV crosslinked K562 cells; lysis buffer 50 mM Tris-HCl pH 7.5, 150 mM NaCl, 1% Triton X-100, 0.1% sodium deoxycholate, protease inhibitor; 5 washes in TBS + 0.05% NP-40; western probed for HNRNPL
T2 sequence: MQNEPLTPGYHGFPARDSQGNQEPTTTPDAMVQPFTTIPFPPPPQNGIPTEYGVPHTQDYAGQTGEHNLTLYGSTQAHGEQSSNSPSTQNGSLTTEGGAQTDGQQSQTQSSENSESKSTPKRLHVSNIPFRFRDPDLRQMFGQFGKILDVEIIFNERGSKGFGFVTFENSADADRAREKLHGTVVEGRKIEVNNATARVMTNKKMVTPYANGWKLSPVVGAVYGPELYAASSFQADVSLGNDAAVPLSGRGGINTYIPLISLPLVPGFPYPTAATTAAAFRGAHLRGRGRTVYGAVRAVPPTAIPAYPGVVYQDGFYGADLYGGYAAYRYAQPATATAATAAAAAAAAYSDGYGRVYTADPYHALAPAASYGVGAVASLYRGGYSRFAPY

[3] = molecular target: T1, AGGF1 (human (endogenous in K562)); assay: as above

binding [1]: no binding
binding [2]: no binding
binding [3]: binds
B1: HNRNPL (protein, UniProt P14866 1-589)
chain: MSRRLLPRAEKRRRRLEQRQQPDEQRRRSGAMVKMAAAGGGGGGGRYYGGGSEGGRAPKRLKTDNAGDQHGGGGGGGGGAGAAGGGGGGENYDDPHKTPASPVVHIRGLIDGVVEADLVEALQEFGPISYVVVMPKKRQALVEFEDVLGACNAVNYAADNQIYIAGHPAFVNYSTSQKISRPGDSDDSRSVNSVLLFTILNPIYSITTDVLYTICNPCGPVQRIVIFRKNGVQAMVEFDSVQSAQRAKASLNGADIYSGCCTLKIEYAKPTRLNVFKNDQDTWDYTNPNLSGQGDPGSNPNKRQRQPPLLGDHPAEYGGPHGGYHSHYHDEGYGPPPPHYEGRRMGPPVGGHRRGPSRYGPQYGHPPPPPPPPEYGPHADSPVLMVYGLDQSKMNCDRVFNVFCLYGNVEKVKFMKSKPGAAMVEMADGYAVDRAITHLNNNFMFGQKLNVCVSKQPAIMPGQSYGLEDGSCSYKDFSESRNNRFSTPEQAAKNRIQHPSNVLHFFNAPLEVTEENFFEICDELGVKRPSSVKVFSGKSERSSSGLLEWESKSDALETLGFLNHYQMKNPNGPYPYTLKLCFSTAQHAS
